{"source": "PubChem BioAssay AID1508597 (Cure First, 2020)", "screen": "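Knock-downs altering ovarian cancer cell survival with or without PARP inhibitor rucaparib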 (primary screen)", "cell system": "human ovarian carcinoma lines grown from tumours: OCI-P5x (papillary serous) and OCI-C5x (clear cell)", "knock-down reagent": "siRNA pool against human genes, 1.25 pmol siRNA per well", "time to read-out": "72 h or 96 h, depending on the cell culture", "conditions": "rucaparib 20 µM (about IC30) or vehicle, present until read-out", "rucaparib or vehicle": "Vehicle", "cell line": "OCI-C5x (clear cell)", "read-out": "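Luminescent ATP-based viability assay read 72 or 96 h after transfection, depending on culture, given as normalised percent viability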", "reading the numbers": "viability, normalised: higher = more viable cells remaining", "call rule": "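a well counts as a hit if its normalised viability is under 80 percent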", "meaning of the calls": "active = viability under 80%; inactive = viability 80% or more", "note": "This is an unselected part of the about 2,100 reagents, under one of the conditions tested. 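Calls flag viability under 80% in either arm, not effects specific to rucaparib; the reference for percent is not stated.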 Entries without a mark were called inactive. A reagent listed more than once was tested more than once; the source does not tell the runs apart. Not given: the 100% reference."}
{"gene": "VCAM1", "technical replicate": "1", "viability, normalised (%)": "17.8 (active)"}
{"gene": "VCAM1", "technical replicate": "2", "viability, normalised (%)": "55.6 (active)"}
{"gene": "VCAM1", "technical replicate": "3", "viability, normalised (%)": "45.8 (active)"}
{"gene": "RIPK3", "technical replicate": "1", "viability, normalised (%)": "55.4 (active)"}
{"gene": "RIPK3", "technical replicate": "2", "viability, normalised (%)": "54.2 (active)"}
{"gene": "RIPK3", "technical replicate": "3", "viability, normalised (%)": "44.6 (active)"}
{"gene": "MCCC1", "technical replicate": "1", "viability, normalised (%)": 83.6}
{"gene": "MCCC1", "technical replicate": "2", "viability, normalised (%)": "68.8 (active)"}
{"gene": "MCCC1", "technical replicate": "3", "viability, normalised (%)": "71.4 (active)"}
{"gene": "MIER2", "technical replicate": "1", "viability, normalised (%)": "48.5 (active)"}
{"gene": "MIER2", "technical replicate": "2", "viability, normalised (%)": "46.4 (active)"}
{"gene": "MIER2", "technical replicate": "3", "viability, normalised (%)": "52.7 (active)"}
{"gene": "CCT2", "technical replicate": "1", "viability, normalised (%)": "61.3 (active)"}
{"gene": "CCT2", "technical replicate": "2", "viability, normalised (%)": "40.6 (active)"}
{"gene": "CCT2", "technical replicate": "3", "viability, normalised (%)": "46.6 (active)"}
{"gene": "DSTYK", "technical replicate": "1", "viability, normalised (%)": "62 (active)"}
{"gene": "DSTYK", "technical replicate": "2", "viability, normalised (%)": "57 (active)"}
{"gene": "DSTYK", "technical replicate": "3", "viability, normalised (%)": "54.9 (active)"}
{"gene": "PIP5K1B", "technical replicate": "1", "viability, normalised (%)": "51.4 (active)"}
{"gene": "PIP5K1B", "technical replicate": "2", "viability, normalised (%)": "40.8 (active)"}
{"gene": "PIP5K1B", "technical replicate": "3", "viability, normalised (%)": "23.7 (active)"}
{"gene": "GAD1", "technical replicate": "1", "viability, normalised (%)": "30.1 (active)"}
{"gene": "GAD1", "technical replicate": "2", "viability, normalised (%)": "46.9 (active)"}
{"gene": "GAD1", "technical replicate": "3", "viability, normalised (%)": "42.6 (active)"}

Reprinted from above (2 entries):
{"gene": "RIPK3", "technical replicate": "1", "viability, normalised (%)": "55.4 (active)"}
{"gene": "RIPK3", "technical replicate": "2", "viability, normalised (%)": "54.2 (active)"}

More entries follow.
{"gene": "ACTL6A", "technical replicate": "1", "viability, normalised (%)": "51.8 (active)"}
{"gene": "ACTL6A", "technical replicate": "2", "viability, normalised (%)": "49.6 (active)"}
{"gene": "ACTL6A", "technical replicate": "3", "viability, normalised (%)": "47 (active)"}
{"gene": "PDK1", "technical replicate": "1", "viability, normalised (%)": "35.3 (active)"}
{"gene": "PDK1", "technical replicate": "1", "viability, normalised (%)": "48.7 (active)"}
{"gene": "PDK1", "technical replicate": "2", "viability, normalised (%)": "57.7 (active)"}
{"gene": "PDK1", "technical replicate": "2", "viability, normalised (%)": "51 (active)"}
{"gene": "PDK1", "technical replicate": "3", "viability, normalised (%)": "37.6 (active)"}
{"gene": "PDK1", "technical replicate": "3", "viability, normalised (%)": "38.2 (active)"}
{"gene": "PARP2", "technical replicate": "1", "viability, normalised (%)": "60.8 (active)"}
{"gene": "PARP2", "technical replicate": "1", "viability, normalised (%)": "29.4 (active)"}
{"gene": "PARP2", "technical replicate": "2", "viability, normalised (%)": "39.2 (active)"}
{"gene": "PARP2", "technical replicate": "2", "viability, normalised (%)": "63.3 (active)"}
{"gene": "PARP2", "technical replicate": "3", "viability, normalised (%)": "61.4 (active)"}
{"gene": "PARP2", "technical replicate": "3", "viability, normalised (%)": "56.1 (active)"}
{"gene": "RMI1", "technical replicate": "1", "viability, normalised (%)": "51 (active)"}
{"gene": "RMI1", "technical replicate": "2", "viability, normalised (%)": "55.1 (active)"}
{"gene": "RMI1", "technical replicate": "3", "viability, normalised (%)": "61.3 (active)"}
